PubChem BioAssay AID602196, INSERM – 2012
Here is an unselected part of about 23,000 reagents. Over the whole deposit, 455 (2%) are marked active. 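Active includes both protection and sensitisation; some change values fall well beyond the stated -50 to +50 range.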 Reagents against one gene are numbered here. Not stated in the record: the amount of reagent.

Screen: 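Knock-downs that protect lung cancer cells from cisplatin or sensitise them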
Cells: human A549 lung cancer cells
Reagent: siRNA pair against human genes
Timing: 48 h transfection before cisplatin; time from cisplatin to read-out not stated
Challenge: cisplatin at a dose killing half of control-siRNA cells; exact dose and duration not given
Measurement: 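Shift in cisplatin death relative to control siRNA, from -50 (all cells die) to +50 (no cells die); siRNAs harmful on their own scored 0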
Scale: two-siRNA summed score (-2 to +2): higher = both siRNAs protect from cisplatin killing; -2 means both sensitise; mean protection from cisplatin (shift in death) and protection from cisplatin (shift in death), siRNA C and protection from cisplatin (shift in death), siRNA D: higher = protection from cisplatin killing
Rule for the call: 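Each siRNA scores 0 if harmful alone by LDH or WST-1, otherwise +1 if it reduces and -1 if it increases cisplatin killing; a gene is active when both siRNAs agree (sum +2 or -2)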
Calls: active = both siRNAs shift cisplatin killing the same way; inactive = no consistent shift, or siRNA harmful alone

| gene knocked down | reagent no. | two-siRNA summed score (-2 to +2) | mean protection from cisplatin (shift in death) (%) | protection from cisplatin (shift in death), siRNA C (%) | protection from cisplatin (shift in death), siRNA D (%) | outcome |
| --- | --- | --- | --- | --- | --- | --- |
| LOC390342 | 1 | 2 | 17.1 | 10.9 | 23.3 | active |
| MYOZ3 | 1 | 0 | 8.3 | 9.9 | 6.7 | inactive |
| LDB2 | 1 | -1 | -1 | 8.6 | -10.6 | inactive |
| PPIAP31 | 1 | 0 | -5.9 | -15.3 | 3.6 | inactive |
| GRSF1 | 1 | 1 | 1.2 | -6.9 | 9.3 | inactive |
| IPO4 | 1 | -1 | -3.4 | -15.7 | 8.9 | inactive |
| FGFR3 | 1 | 1 | 15.8 | 24.1 | 7.5 | inactive |
| TENT5D | 1 | 0 | -6.6 | -7.6 | -5.6 | inactive |
| FAM131C2P | 1 | 0 | 8.9 | 9.3 | 8.5 | inactive |
| RCC2 | 1 | 0 | 17.6 | 19.6 | 15.7 | inactive |
| TIGD1 | 1 | 0 | 2.1 | 1.2 | 3.1 | inactive |
| WDR4 | 1 | 0 | 1.6 | 0 | 3.3 | inactive |
| BFAR | 1 | 0 | -11 | -15 | -6.9 | inactive |
| ITPR1 | 1 | 0 | -11.2 | -14.1 | -8.3 | inactive |
| LOC440352 | 1 | 0 | 10.7 | 12.8 | 8.5 | inactive |
| OR5H6 | 1 | 0 | 6.5 | 5.3 | 7.6 | inactive |
| SLC35G3 | 1 | 0 | -1.4 | 11.9 | -14.6 | inactive |
| PRSS23 | 1 | 0 | -0.8 | 6.3 | -7.9 | inactive |
| HS3ST1 | 1 | 0 | -0.1 | -9.1 | 8.9 | inactive |
| CHRM1 | 1 | 1 | 3.7 | -0.1 | 7.4 | inactive |
| ABCF3 | 1 | -1 | -15 | -24.1 | -5.8 | inactive |
| RNF26 | 1 | 1 | 14.4 | -4.1 | 32.8 | inactive |
| LOC400987 | 1 | 0 | 9.9 | 4.3 | 15.5 | inactive |
| NDUFS5 | 1 | 0 | -11.4 | -10.5 | -12.4 | inactive |
| RBM43 | 1 | 0 | 11.1 | 11.3 | 10.9 | inactive |
| MT1A | 1 | 0 | 10.5 | 16.9 | 4.2 | inactive |
| LOC343484 | 1 | 1 | 7.3 | 15 | -0.4 | inactive |
| CHST10 | 1 | 0 | 5.7 | -0.5 | 11.8 | inactive |
| SMIM19 | 1 | 0 | -2.4 | 5.5 | -10.4 | inactive |
| LY86-AS1 | 1 | 0 | 1 | 4.4 | -2.3 | inactive |
| TMEM200A | 1 | 0 | -4 | -7.2 | -0.7 | inactive |
| TLE3 | 1 | 0 | 3.2 | 1.7 | 4.7 | inactive |
| MAPK4 | 1 | 0 | 6.9 | 13.3 | 0.5 | inactive |
| LOC400807 | 1 | 0 | -1.9 | -1.5 | -2.3 | inactive |
| EHHADH-AS1 | 1 | 1 | 6.8 | -5.3 | 18.9 | inactive |
| SPINDOC | 1 | 0 | 5.4 | 14.4 | -3.7 | inactive |
| CDC45 | 1 | -2 | -18.2 | -17.7 | -18.6 | active |
| TPRA1 | 1 | 0 | 13.3 | -22.2 | 48.8 | inactive |
| CLCN5 | 1 | 0 | 9.8 | 13.4 | 6.2 | inactive |
| FAM89A | 1 | 1 | 26.8 | 28.8 | 24.7 | inactive |
| GIGYF2 | 1 | 0 | -0.9 | -4.7 | 2.9 | inactive |
| LOC441344 | 1 | 0 | 7.8 | -4.9 | 20.6 | inactive |
| PMM2 | 1 | -1 | -26.8 | -49.8 | -3.7 | inactive |
| SACK1H | 1 | 0 | 15.9 | 18.7 | 13.1 | inactive |
| CHD2 | 1 | 1 | 18.1 | 3.7 | 32.6 | inactive |
| LOC388806 | 1 | 0 | 1.3 | 6 | -3.5 | inactive |
| PIK3R4 | 1 | 0 | -4.3 | -6.9 | -1.8 | inactive |
| PDGFC | 1 | 0 | 6.1 | -2.5 | 14.8 | inactive |
| DFFB | 1 | 1 | 5 | 12.9 | -2.9 | inactive |
| LOC401895 | 1 | 1 | 13.4 | 22.7 | 4 | inactive |
| LOC401015 | 1 | 1 | 13.8 | 17.3 | 10.3 | inactive |
| ZDHHC20 | 1 | 0 | 10.3 | 12.6 | 7.9 | inactive |
| NXPE1 | 1 | 0 | 6.7 | 4.5 | 8.8 | inactive |
| CIMIP4 | 1 | 0 | 7.2 | 17.8 | -3.3 | inactive |
| CHRNA3 | 1 | 0 | 12.3 | 4.4 | 20.1 | inactive |
| TRIM64FP | 1 | 0 | 5.3 | 10.7 | -0.1 | inactive |
| FOXP4 | 1 | -1 | -13.7 | -17.7 | -9.6 | inactive |
| FOXP4 | 2 | -1 | -9.9 | -6.4 | -13.4 | inactive |

Part of the list above, reformatted:
RCC2
- two-siRNA summed score (-2 to +2): 0
- mean protection from cisplatin (shift in death) (%): 17.6
- protection from cisplatin (shift in death), siRNA C (%): 19.6
- protection from cisplatin (shift in death), siRNA D (%): 15.7
- outcome: inactive

TIGD1
- two-siRNA summed score (-2 to +2): 0
- mean protection from cisplatin (shift in death) (%): 2.1
- protection from cisplatin (shift in death), siRNA C (%): 1.2
- protection from cisplatin (shift in death), siRNA D (%): 3.1
- outcome: inactive

WDR4
- two-siRNA summed score (-2 to +2): 0
- mean protection from cisplatin (shift in death) (%): 1.6
- protection from cisplatin (shift in death), siRNA C (%): 0
- protection from cisplatin (shift in death), siRNA D (%): 3.3
- outcome: inactive

BFAR
- two-siRNA summed score (-2 to +2): 0
- mean protection from cisplatin (shift in death) (%): -11
- protection from cisplatin (shift in death), siRNA C (%): -15
- protection from cisplatin (shift in death), siRNA D (%): -6.9
- outcome: inactive

ITPR1
- two-siRNA summed score (-2 to +2): 0
- mean protection from cisplatin (shift in death) (%): -11.2
- protection from cisplatin (shift in death), siRNA C (%): -14.1
- protection from cisplatin (shift in death), siRNA D (%): -8.3
- outcome: inactive

LOC440352
- two-siRNA summed score (-2 to +2): 0
- mean protection from cisplatin (shift in death) (%): 10.7
- protection from cisplatin (shift in death), siRNA C (%): 12.8
- protection from cisplatin (shift in death), siRNA D (%): 8.5
- outcome: inactive
